The record followed here is doi:10.1101/2021.01.21.427566.

Positions count from the first letter of the chain named. Names and notes keep the numbering of the source. Results are given in words; binding and its absence hold for the method and conditions named. Binding seen in cells or lysates may run through a third protein. Some entries that bind do so weakly or less than the wild type. For some of these results: Sequences can lack the tags named with a protein.

Common to all, as to test: cross-linking
The target of assay [1] is Smc^4S-HaloTag with S152C and G302W (B. subtilis) (UniProt P51834).
For assay [2], the target named is Smc^4S-HaloTag with A715C and G302W (B. subtilis) (UniProt P51834).
Assay [3] concerns the target Smc^4S-HaloTag with Q320C and K1151C (B. subtilis) (UniProt P51834).
In assay [4] the target is Smc^4S(K37I, K1151C)-HT (B. subtilis) (UniProt P51834).
The target in assay [5] is Smc^4S(K1151C)-HT (B. subtilis) (UniProt P51834).
The target in assay [6] is Smc(GE, E1118Q) with K1151C (B. subtilis) (UniProt P51834).
Assay [7] concerns the target Smc^4S(E1118Q, K1151C)-HT (B. subtilis) (UniProt P51834).

B1: Smc^4S-HaloTag with S152C and G302W (protein, UniProt P51834 1-1186)
chain: MFLKRLDVIGFKSFAERISVDFVKGVTAVVGPNGSGKSNITDAIRWVLGEQSARSLRGGKMEDIIFAGSDSRKRLNLAEVTLTLDNDDHFLPIDFHEVSVTRRVYRSGESEFLINNQPSRLKDIIDLFMDSGLGKEAFSIISQGKVEEILSCKAEDRRSIFEEAAGVLKYKTRKKKAENKLFETQDNLNRVEDILHELEGQVEPLKIQASIAKDYLEKKKELEHVEIALTAYDIEELHGKWSTLKEKVQMAKEEELAESSAISAKEAKIEDTRDKIQALDESVDELQQVLLVTSEELEKLEWRKEVLKERKKNAVQNQEQLEEAIVQFQQKETVLKEELSKQEAVFETLQAEVKQLRAQVKEKQQALSLHNENVEEKIEQLKSDYFELLNSQASIRNELQLLDDQMSQSAVTLQRLADNNEKHLQERHDISARKAASETEFARIEQEIHSQVGAYRDMQTKYEQKKRQYEKNESALYQAYQYVQQARSKKDMLETMQGDFSGFYQGVKEVLKAKERLGGIRGAVLELISTEQKYETAIEIALGASAQHVVTDDEQSARKAIQYLKQNSFGRATFLPLSVIRDRQLQSRDAETAARHSSFLGVASELVTFDPAYRSVIQNLLGTVLITEDLKGANELAKLLGHRYRIVTLEGDVVNPGGSMTGGAVKKKNNSLLGRSRELEDVTKRLAEMEEKTALLEQEVKTLKHSIQDMEKKLADLRETGEGLRLKQQDVKGQLYELQVAEKNINTHLELYDQEKSALSESDEERKVRKRKLEEELSAVSEKMKQLEEDIDRLTKQKQTQSSTKESLSNELTELKIAAAKKEQASKGEEDNLARLKKELTETELALKEAKEDLSFLTSEMSSSTSGEEKLEEAAKHKLNDKTKTIELIALRRDQRIKLQHGLDTYERELKEMKRLYKQKTTLLKDEEVKLGRMEVELDNLLQYLREEYSLSFEGAKEKYQLETDPEEARKRVKLIKLAIEELGTVNLGSIDEFERVNERYKFLSEQKEDLTEAKNTLFQVIEEMDEEMTKRFNDTFVQIRSHFDQVFRSLFGGGRAELRLTDPNDLLHSGVEIIAQPPGKKLQNLNLLSGGERALTAIALLFSILKVRPVPFSVLDEVEAALDEANVFRFAQYLKKYSSDTQFIVITHRKGTMEEADVLYGVTMQESGVSKVISVKLEETKEFVQ
Take B1: the binding entry in assay [1] was “binds”.

B2: Smc^4S-HaloTag with A715C and G302W (protein, UniProt P51834 1-1186)
chain: B1 chain with C152S, A715C
Regarding B2, in assay [2], the binding entry was “binds”.

B3: Smc^4S-HaloTag with Q320C and K1151C (protein, UniProt P51834 1-1186)
chain: B1 chain with C152S, W302G, Q320C, K1151C
B3: the binding result in assay [3] is “binds”.

B4: Smc^4S(K37I, K1151C)-HT (protein, UniProt P51834 1-1186)
chain: B1 chain with K37I, C152S, W302G, K1151C
As to B4, the binding entry in assay [4] was “binds”.

B5: Smc^4S(K1151C)-HT (protein, UniProt P51834 1-1186)
chain: B1 chain with C152S, W302G, K1151C
For B5, the binding entry in assay [5] was “binds”.

B6: Smc(GE, E1118Q) with K1151C (protein, UniProt P51834 1-1186)
chain: B1 chain with C152S, W302E, E1118Q, K1151C
On to B6, for which the binding entry in assay [6] is reported as “binds”.

B7: Smc^4S(E1118Q, K1151C)-HT (protein, UniProt P51834 1-1186)
chain: B1 chain with C152S, W302G, E1118Q, K1151C
B7: the binding result in assay [7] is “binds”.
